Laboratory results published in publication doi:10.1101/2020.10.20.347385.
Results are given in words; binding and its absence hold for the method and conditions named. Binding seen in cells or lysates may run through a third protein. Some binding calls cover weakened binding; strength is not graded here. For part of these data: Sequences can lack the tags named with a protein.

Legend:
Test in all cases: co-IP
[1] = target: T1, Vangl1, murine, endogenous (mouse (endogenous in IMCD3)) (UniProt Q80Z96)
T1 sequence: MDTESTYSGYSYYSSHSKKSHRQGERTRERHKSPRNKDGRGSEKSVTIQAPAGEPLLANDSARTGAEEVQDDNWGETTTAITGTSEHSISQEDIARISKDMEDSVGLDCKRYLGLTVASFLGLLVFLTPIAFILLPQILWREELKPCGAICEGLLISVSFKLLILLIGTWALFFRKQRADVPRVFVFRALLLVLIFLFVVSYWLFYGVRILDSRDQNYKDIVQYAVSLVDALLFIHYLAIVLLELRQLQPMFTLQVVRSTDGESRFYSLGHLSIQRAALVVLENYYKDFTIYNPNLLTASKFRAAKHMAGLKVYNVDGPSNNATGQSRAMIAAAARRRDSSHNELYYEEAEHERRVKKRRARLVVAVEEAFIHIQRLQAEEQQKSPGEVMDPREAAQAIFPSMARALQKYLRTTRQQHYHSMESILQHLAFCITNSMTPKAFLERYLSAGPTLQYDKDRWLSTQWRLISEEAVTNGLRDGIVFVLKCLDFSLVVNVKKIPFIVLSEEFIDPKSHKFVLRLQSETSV

[2] = target: T2, Vangl2 (canonical 521 aa isoform), human, endogenous (human (endogenous in SKBR7 and HEK 293T)) (UniProt Q9ULK5)
T2 sequence: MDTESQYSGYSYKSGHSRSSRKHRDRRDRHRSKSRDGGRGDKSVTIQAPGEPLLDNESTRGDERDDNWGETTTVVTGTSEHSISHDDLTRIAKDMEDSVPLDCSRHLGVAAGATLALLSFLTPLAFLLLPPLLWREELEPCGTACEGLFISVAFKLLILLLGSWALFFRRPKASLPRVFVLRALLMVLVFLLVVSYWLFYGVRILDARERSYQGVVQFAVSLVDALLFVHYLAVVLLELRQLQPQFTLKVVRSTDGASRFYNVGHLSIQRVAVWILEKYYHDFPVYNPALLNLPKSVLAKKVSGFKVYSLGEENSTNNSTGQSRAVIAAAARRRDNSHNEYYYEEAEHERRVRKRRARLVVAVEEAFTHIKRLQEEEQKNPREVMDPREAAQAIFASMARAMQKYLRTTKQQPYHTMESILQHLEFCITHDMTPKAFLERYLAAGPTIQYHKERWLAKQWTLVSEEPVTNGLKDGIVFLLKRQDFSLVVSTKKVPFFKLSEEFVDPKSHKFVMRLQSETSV

[3] = target: T3, Vangl2 expressed from pVangl2 (human) (UniProt Q9ULK5)
T3 sequence: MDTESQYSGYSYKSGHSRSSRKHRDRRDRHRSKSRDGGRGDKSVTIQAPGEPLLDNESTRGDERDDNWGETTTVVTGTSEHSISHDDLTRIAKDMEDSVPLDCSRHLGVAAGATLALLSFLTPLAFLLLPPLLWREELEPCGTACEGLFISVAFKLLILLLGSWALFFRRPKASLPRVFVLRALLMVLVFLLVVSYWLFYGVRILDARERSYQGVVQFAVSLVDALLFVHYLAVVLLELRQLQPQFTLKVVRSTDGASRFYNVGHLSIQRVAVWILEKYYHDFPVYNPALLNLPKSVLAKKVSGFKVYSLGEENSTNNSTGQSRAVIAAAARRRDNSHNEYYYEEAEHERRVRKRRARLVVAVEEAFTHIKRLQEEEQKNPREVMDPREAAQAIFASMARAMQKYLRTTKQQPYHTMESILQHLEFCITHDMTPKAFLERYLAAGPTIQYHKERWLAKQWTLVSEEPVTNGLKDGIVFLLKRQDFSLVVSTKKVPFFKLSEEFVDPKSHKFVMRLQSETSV

B1: Vangl2 (canonical isoform), murine, endogenous (protein, UniProt Q91ZD4 1-521)
chain: MDTESQYSGYSYKSGHSRSSRKHRDRRDRHRSKSRDGSRGDKSVTIQAPGEPLLDNESTRGDERDDNWGETTTVVTGTSEHSISHDDLTRIAKDMEDSVPLDCSRHLGVAAGAILALLSFLTPLAFLLLPPLLWREELEPCGTACEGLFISVAFKLLILLLGSWALFFRRPKASLPRVFVLRALLMVLVFLLVISYWLFYGVRILDARERSYQGVVQFAVSLVDALLFVHYLAVVLLELRQLQPQFTLKVVRSTDGASRFYNVGHLSIQRVAVWILEKYYHDFPVYNPALLNLPKSVLAKKVSGFKVYSLGEENSTNNSTGQSRAVIAAAARRRDNSHNEYYYEEAEHERRVRKRRARLVVAVEEAFTHIKRLQEEEQKNPREVMDPREAAQAIFASMARAMQKYLRTTKQQPYHTMESILQHLEFCITHDMTPKAFLERYLAAGPTIQYHKERWLAKQWTLVSEEPVTNGLKDGIVFLLKRQDFSLVVSTKKVPFFKLSEEFVDPKSHKFVMRLQSETSV
- binding [1]: binds

B2: Vangl1, human, endogenous (protein, UniProt Q8TAA9 1-524)
chain: MDTESTYSGYSYYSSHSKKSHRQGERTRERHKSPRNKDGRGSEKSVTIQPPTGEPLLGNDSTRTEEVQDDNWGETTTAITGTSEHSISQEDIARISKDMEDSVGLDCKRYLGLTVASFLGLLVFLTPIAFILLPPILWRDELEPCGTICEGLFISMAFKLLILLIGTWALFFRKRRADMPRVFVFRALLLVLIFLFVVSYWLFYGVRILDSRDRNYQGIVQYAVSLVDALLFIHYLAIVLLELRQLQPMFTLQVVRSTDGESRFYSLGHLSIQRAALVVLENYYKDFTIYNPNLLTASKFRAAKHMAGLKVYNVDGPSNNATGQSRAMIAAAARRRDSSHNELYYEEAEHERRVKKRKARLVVAVEEAFIHIQRLQAEEQQKAPGEVMDPREAAQAIFPSMARALQKYLRITRQQNYHSMESILQHLAFCITNGMTPKAFLERYLSAGPTLQYDKDRWLSTQWRLVSDEAVTNGLRDGIVFVLKCLDFSLVVNVKKIPFIILSEEFIDPKSHKFVLRLQSETSV
- binding [2]: binds

B3: GFP-Vangl1 (protein, UniProt Q8TAA9 1-524)
chain: MDTESTYSGYSYYSSHSKKSHRQGERTRERHKSPRNKDGRGSEKSVTIQPPTGEPLLGNDSTRTEEVQDDNWGETTTAITGTSEHSISQEDIARISKDMEDSVGLDCKRYLGLTVASFLGLLVFLTPIAFILLPPILWRDELEPCGTICEGLFISMAFKLLILLIGTWALFFRKRRADMPRVFVFRALLLVLIFLFVVSYWLFYGVRILDSRDRNYQGIVQYAVSLVDALLFIHYLAIVLLELRQLQPMFTLQVVRSTDGESRFYSLGHLSIQRAALVVLENYYKDFTIYNPNLLTASKFRAAKHMAGLKVYNVDGPSNNATGQSRAMIAAAARRRDSSHNELYYEEAEHERRVKKRKARLVVAVEEAFIHIQRLQAEEQQKAPGEVMDPREAAQAIFPSMARALQKYLRITRQQNYHSMESILQHLAFCITNGMTPKAFLERYLSAGPTLQYDKDRWLSTQWRLVSDEAVTNGLRDGIVFVLKCLDFSLVVNVKKIPFIILSEEFIDPKSHKFVLRLQSETSV
- binding [3]: binds
